{"source": "PubChem BioAssay AID493014", "about": "(National Center for Advancing Translational Sciences (NCATS), 2011)", "experiment": "qHTS Assay to Find Inhibitors of Chronic Active B-Cell Receptor Signaling", "settings": "ABC-DLBCL IkBa-CBG/CBR reporter, luminescence ratio (green luciferase fused to IkBa over red control in TMD8 lymphoma cells), 4 h", "how_it_was_run": "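Concentration-response series (up to 46 uM) were applied to TMD8 dual-reporter cells for 4 h at 37C with doxycycline. Green/red ratio, after filter-overlap correction, defined %Activity; red signal alone was normalised to basal cells and zero luminescence.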", "key": {"[1]": {"settings": "measured here: CBR red luminescence, cell number"}, "[2]": {"settings": "measured here: IkBa-CBG green luminescence"}}, "note": "Some of the results follow. The main result of the screen is listed elsewhere. These columns were measured beside it and carry no call. Most of these compounds were active or inconclusive in the main read-out, so they are no random draw. Potencies come from curve fits of mixed quality, noted in brackets.", "data": [{"smiles": "CCC(CC)C(=O)Nc1cccc(C(=O)c2ccccc2)c1", "values": [{"measurement": "AC50", "setting": "[1]", "value": "16.4 µM [rising, single point]"}]}, {"smiles": "COC(=O)c1cnn(-c2ccc(F)cc2F)c1/C=N/NC(N)=S", "values": [{"measurement": "AC50", "setting": "[1]", "value": "14.1 µM [falling, partial curve, poor fit]"}]}, {"smiles": "Cc1cccc(-n2c(-c3csc(C)c3)n[nH]c2=S)c1", "values": [{"measurement": "AC50", "setting": "[1]", "value": "1.3 µM [falling, full curve, poor fit]"}]}, {"smiles": "Cc1ccc(C(O)P(=O)(OCc2ccccc2)c2ccc(N(C)C)cc2)cc1", "note": "(configuration not stated)", "values": [{"measurement": "AC50", "setting": "[1]", "value": "5.62 µM [falling, full curve, poor fit]"}]}, {"smiles": "COc1ccc(CCNC(=O)CN2CCN(c3ccccc3Cl)CC2)cc1", "values": [{"measurement": "AC50", "setting": "[1]", "value": "16.4 µM [falling, single point]"}]}, {"smiles": "O=C1NN(c2ccc(Cl)c(Cl)c2)C(=O)/C1=C/c1ccc(-c2ccccc2C(=O)O)o1", "values": [{"measurement": "AC50", "setting": "[1]", "value": "14.1 µM [falling, single point]"}]}, {"smiles": "Cc1sc(=NC(=O)c2ccco2)n(C)c1-c1ccc(F)cc1", "values": [{"measurement": "AC50", "setting": "[1]", "value": "6.31 µM [falling, single point]"}]}, {"smiles": "COc1cc(C(=O)Oc2ccccc2N)cc(OC)c1OC", "values": [{"measurement": "AC50", "setting": "[1]", "value": "16.4 µM [falling, partial curve]"}]}, {"smiles": "O=C(CS(=O)(=O)c1cn(Cc2ccc(F)cc2)c2ccccc12)N1CCOCC1", "values": [{"measurement": "AC50", "setting": "[1]", "value": "11.2 µM [rising, partial curve, poor fit]"}]}, {"smiles": "Cc1ccc(Oc2ccc(-c3nc(N)nc(N)n3)cc2)cc1", "values": [{"measurement": "AC50", "setting": "[1]", "value": "0.231 µM [rising, full curve, poor fit]"}]}, {"smiles": "NNC(=O)c1cn2ccccc2n1", "values": [{"measurement": "AC50", "setting": "[1]", "value": "17.8 µM [falling, single point]"}]}, {"smiles": "O=C(N/N=C/c1ccncc1)c1nc2ccccc2c(=O)[nH]1", "values": [{"measurement": "AC50", "setting": "[1]", "value": "12.6 µM [falling, single point]"}]}, {"smiles": "c1ccc(-c2nc(-n3nc4ccccc4n3)nc3ccccc23)cc1", "values": [{"measurement": "AC50", "setting": "[1]", "value": "0.112 µM [rising, full curve, poor fit]"}]}, {"smiles": "CS(=O)(=O)N(Cc1ccc(C(=O)NN=C2CCCCCC2)cc1)c1ccccc1", "values": [{"measurement": "AC50", "setting": "[1]", "value": "18.4 µM [falling, partial curve]"}]}, {"smiles": "O=C(Nc1ccccc1Cl)C1CCCN(S(=O)(=O)c2ccc(F)cc2)C1", "note": "(configuration not stated)", "values": [{"measurement": "AC50", "setting": "[1]", "value": "6.51 µM [falling, single point]"}]}, {"smiles": "CN(C)c1ccc(CNc2ncc(Br)cc2Br)cc1", "values": [{"measurement": "AC50", "setting": "[1]", "value": "11.2 µM [rising, partial curve, poor fit]"}]}, {"smiles": "CCOC(=O)Cc1csc(NC(=O)CCS(=O)(=O)Cc2ccccc2)n1", "values": [{"measurement": "AC50", "setting": "[1]", "value": "10.3 µM [falling, single point]"}, {"measurement": "AC50", "setting": "[2]", "value": "3.66 µM [rising, partial curve, poor fit]"}]}, {"smiles": "CCOC(=O)c1ccc(NC(=O)c2nc(S(=O)(=O)Cc3ccccc3)ncc2Cl)cc1", "values": [{"measurement": "AC50", "setting": "[1]", "value": "10 µM [falling, partial curve]"}]}, {"smiles": "[2H]C(CCOS(N)(=O)=O)c1ccc(C(C)(C)C)cc1", "note": "(configuration not stated)", "values": [{"measurement": "AC50", "setting": "[1]", "value": "4.47 µM [falling, partial curve]"}]}, {"smiles": "COc1cc(C(=O)N/N=C/c2cccc(Oc3ccccc3)c2)ccc1O", "values": [{"measurement": "AC50", "setting": "[1]", "value": "10 µM [falling, partial curve]"}]}, {"smiles": "O=c1c2c(nc3c(-c4cccc5ccccc45)c[nH]n13)CCC2", "values": [{"measurement": "AC50", "setting": "[1]", "value": "2.31 µM [falling, full curve, poor fit]"}]}, {"smiles": "Cc1ccc(C(=O)NN2C(=O)C3C(C2=O)C2C=CC3C23CC3)cc1", "note": "(configuration not stated)", "values": [{"measurement": "AC50", "setting": "[1]", "value": "15.8 µM [falling, partial curve, poor fit]"}]}, {"smiles": "COc1ccc(N(CC(=O)N2c3ccccc3CC2C)S(=O)(=O)c2c(C)noc2C)cc1", "note": "(configuration not stated)", "values": [{"measurement": "AC50", "setting": "[1]", "value": "3.66 µM [falling, partial curve, poor fit]"}]}, {"smiles": "O=C(NCC(=O)N1CCN(c2ncccn2)CC1)c1ccccc1OC(F)F", "values": [{"measurement": "AC50", "setting": "[1]", "value": "23.1 µM [falling, single point]"}]}, {"smiles": "CCc1nnc(NC(=O)Nc2ccc(Cl)cc2)s1", "values": [{"measurement": "AC50", "setting": "[1]", "value": "2.82 µM [rising, full curve]"}]}, {"smiles": "O=[N+]([O-])c1ccc(-c2nc(NCc3cccnc3)c3ccccc3n2)cc1", "values": [{"measurement": "AC50", "setting": "[1]", "value": "17.8 µM [rising, single point]"}]}, {"smiles": "COc1cc2c(cc1NC(=O)CN1C(=O)NC3(CCc4ccccc43)C1=O)oc1ccccc12", "note": "(configuration not stated)", "values": [{"measurement": "AC50", "setting": "[1]", "value": "7.08 µM [falling, partial curve]"}]}, {"smiles": "O=C(Nc1cccc(C(=O)O)c1)/C(=C\\c1ccco1)NC(=O)c1ccc(Br)o1", "values": [{"measurement": "AC50", "setting": "[1]", "value": "20 µM [falling, single point]"}]}, {"smiles": "COc1ccc(NC(=O)CNS(=O)(=O)c2ccc(Cl)cc2)cc1", "values": [{"measurement": "AC50", "setting": "[1]", "value": "18.4 µM [rising, single point]"}]}, {"smiles": "O=C1NC(=S)S/C1=C\\c1cc2ccccc2nc1N1CCCCC1", "values": [{"measurement": "AC50", "setting": "[1]", "value": "14.1 µM [rising, single point]"}]}, {"smiles": "O=C(Nc1cc(N2CCOCC2)ncn1)c1ccccc1", "values": [{"measurement": "AC50", "setting": "[1]", "value": "11.2 µM [falling, partial curve, poor fit]"}]}, {"smiles": "COc1ccc(C2NC(=O)c3ccccc3N2)cc1", "note": "(configuration not stated)", "values": [{"measurement": "AC50", "setting": "[1]", "value": "3.98 µM [rising, single point]"}]}, {"smiles": "COc1ccc(CCNC(=O)CSc2nnc(-c3ccc(C)cc3)c(-c3ccc(C)cc3)n2)cc1OC", "values": [{"measurement": "AC50", "setting": "[1]", "value": "20 µM [rising, partial curve, poor fit]"}]}, {"smiles": "CCS(=O)(=O)c1ccc(O)c(NC(=O)/C=C/c2ccccc2)c1", "values": [{"measurement": "AC50", "setting": "[1]", "value": "35.5 µM [falling, single point]"}]}, {"smiles": "Cc1ccc(C(=O)CC2(O)C(=O)N(Cc3ccccc3Cl)c3ccccc32)o1", "note": "(configuration not stated)", "values": [{"measurement": "AC50", "setting": "[1]", "value": "6.51 µM [falling, single point]"}]}, {"smiles": "COc1ccccc1C(=O)NCC(=O)Nc1ccc2c(c1)CCC2", "values": [{"measurement": "AC50", "setting": "[1]", "value": "23.1 µM [rising, partial curve]"}]}, {"smiles": "C/C(=N\\NC(=O)c1ccccc1O)c1ccc(NC(=O)Cc2ccccc2)cc1", "values": [{"measurement": "AC50", "setting": "[1]", "value": "7.08 µM [falling, full curve]"}]}, {"smiles": "COC(=O)CSC1=C(C#N)C(c2ccc(C)o2)CC(=O)N1", "note": "(configuration not stated)", "values": [{"measurement": "AC50", "setting": "[1]", "value": "20 µM [rising, partial curve, poor fit]"}, {"measurement": "AC50", "setting": "[2]", "value": "20 µM [falling, partial curve, poor fit]"}]}, {"smiles": "CCN(CC)c1ccc(CN(C(=O)c2cc(OC)c(OC)c(OC)c2)C2CCS(=O)(=O)C2)cc1", "note": "(configuration not stated)", "values": [{"measurement": "AC50", "setting": "[1]", "value": "5.62 µM [rising, full curve, poor fit]"}]}, {"smiles": "CCOC(=O)c1ccc2c(c1)n(CC)c(/C=C/N(C)c1ccccc1)[n+]2CC", "values": [{"measurement": "AC50", "setting": "[1]", "value": "16.4 µM [falling, partial curve, poor fit]"}]}]}
